Data as given in PubChem BioAssay AID1508597 (Cure First, 2020)
This is an unselected part of about 2,100 reagents. 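Calls flag viability under 80% in either arm, not effects specific to rucaparib; the reference for percent is not stated.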 Unmarked entries are inactive. The record does not give: the 100% reference.

Purpose: 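Knock-downs altering ovarian cancer cell survival with or without PARP inhibitor rucaparib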 (primary screen)
Cell system: human ovarian carcinoma lines grown from tumours: OCI-P5x (papillary serous) and OCI-C5x (clear cell)
Reagents: siRNA pool against human genes, 1.25 pmol siRNA per well
Duration: 72 h or 96 h, depending on the cell culture
Challenge: rucaparib 20 µM (about IC30) or vehicle, present until read-out
Detection: 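ATP luminescence measured at 72 or 96 h according to the culture, then normalised and expressed as percent viability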
Direction: viability, normalised: higher = more viable cells remaining
Hit rule: 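a well counts as a hit if its normalised viability is under 80 percent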
Calls: active = viability under 80%; inactive = viability 80% or more

Target gene | rucaparib or vehicle | cell line | technical replicate | viability, normalised (%)
PCDHB10 | Rucaparib | OCI-C5x (clear cell) | 1 | 59.3 (active)
PCDHB10 | Rucaparib | OCI-C5x (clear cell) | 2 | 65.8 (active)
PCDHB10 | Rucaparib | OCI-C5x (clear cell) | 3 | 53.7 (active)
PCDHB10 | Rucaparib | OCI-P5x (serous) | 1 | 71.2 (active)
PCDHB10 | Rucaparib | OCI-P5x (serous) | 2 | 64.6 (active)
PCDHB10 | Rucaparib | OCI-P5x (serous) | 3 | 62.9 (active)
PCDHB10 | Vehicle | OCI-C5x (clear cell) | 1 | 58 (active)
PCDHB10 | Vehicle | OCI-C5x (clear cell) | 2 | 49.3 (active)
PCDHB10 | Vehicle | OCI-C5x (clear cell) | 3 | 75.7 (active)
PCDHB10 | Vehicle | OCI-P5x (serous) | 1 | 61 (active)
PCDHB10 | Vehicle | OCI-P5x (serous) | 2 | 68.8 (active)
PCDHB10 | Vehicle | OCI-P5x (serous) | 3 | 132

A run of entries taken from the entries so far, as a working copy:
Target gene | rucaparib or vehicle | cell line | technical replicate | viability, normalised (%)
PCDHB10 | Rucaparib | OCI-C5x (clear cell) | 3 | 53.7 (active)
PCDHB10 | Rucaparib | OCI-P5x (serous) | 1 | 71.2 (active)
PCDHB10 | Rucaparib | OCI-P5x (serous) | 2 | 64.6 (active)

More results follow:
Target gene | rucaparib or vehicle | cell line | technical replicate | viability, normalised (%)
TGFB1 | Rucaparib | OCI-C5x (clear cell) | 1 | 75.3 (active)
TGFB1 | Rucaparib | OCI-C5x (clear cell) | 2 | 60.5 (active)
TGFB1 | Rucaparib | OCI-C5x (clear cell) | 3 | 55.8 (active)
TGFB1 | Rucaparib | OCI-P5x (serous) | 1 | 71.8 (active)
TGFB1 | Rucaparib | OCI-P5x (serous) | 2 | 66 (active)
TGFB1 | Rucaparib | OCI-P5x (serous) | 3 | 64.5 (active)
TGFB1 | Vehicle | OCI-C5x (clear cell) | 1 | 56.1 (active)
TGFB1 | Vehicle | OCI-C5x (clear cell) | 2 | 80
TGFB1 | Vehicle | OCI-C5x (clear cell) | 3 | 51.6 (active)
TGFB1 | Vehicle | OCI-P5x (serous) | 1 | 102
TGFB1 | Vehicle | OCI-P5x (serous) | 2 | 95.1
TGFB1 | Vehicle | OCI-P5x (serous) | 3 | 93.3
